Laboratory results: paper PMC10032529
No constants are given. Whether binding was seen depends on the method and setting. Binding seen in cells or lysates may run through a third protein. Binding calls can cover weak binding; strength is not graded here.

Chains of the proteins cited; added tags and fusions are not shown. Lines headed by an entry give the natural chain unless they say otherwise; changes in a name come on top.
UniProt Q12967: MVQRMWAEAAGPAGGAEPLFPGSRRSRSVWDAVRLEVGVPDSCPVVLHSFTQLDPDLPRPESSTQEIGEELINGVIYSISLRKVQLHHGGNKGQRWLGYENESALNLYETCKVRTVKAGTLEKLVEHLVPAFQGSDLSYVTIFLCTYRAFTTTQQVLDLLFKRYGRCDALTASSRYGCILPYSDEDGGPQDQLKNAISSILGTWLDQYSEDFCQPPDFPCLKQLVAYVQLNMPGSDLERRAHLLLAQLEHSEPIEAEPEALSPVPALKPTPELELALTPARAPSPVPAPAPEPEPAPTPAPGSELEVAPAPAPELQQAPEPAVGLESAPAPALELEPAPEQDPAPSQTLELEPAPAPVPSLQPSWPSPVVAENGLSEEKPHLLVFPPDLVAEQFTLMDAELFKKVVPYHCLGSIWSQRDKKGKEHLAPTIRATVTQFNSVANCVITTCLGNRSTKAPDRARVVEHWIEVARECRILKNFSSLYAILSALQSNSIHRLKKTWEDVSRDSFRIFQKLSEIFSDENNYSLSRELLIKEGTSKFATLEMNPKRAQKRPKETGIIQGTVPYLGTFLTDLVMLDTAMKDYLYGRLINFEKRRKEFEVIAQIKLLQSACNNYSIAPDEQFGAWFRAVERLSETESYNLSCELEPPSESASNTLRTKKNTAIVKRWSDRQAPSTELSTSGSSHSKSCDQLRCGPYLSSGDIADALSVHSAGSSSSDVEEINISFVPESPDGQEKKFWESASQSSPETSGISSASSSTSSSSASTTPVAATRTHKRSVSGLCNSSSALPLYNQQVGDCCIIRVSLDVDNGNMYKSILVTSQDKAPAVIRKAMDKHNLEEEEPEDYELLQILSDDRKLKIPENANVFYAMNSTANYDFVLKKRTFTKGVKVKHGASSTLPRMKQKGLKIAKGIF
UniProt P61224: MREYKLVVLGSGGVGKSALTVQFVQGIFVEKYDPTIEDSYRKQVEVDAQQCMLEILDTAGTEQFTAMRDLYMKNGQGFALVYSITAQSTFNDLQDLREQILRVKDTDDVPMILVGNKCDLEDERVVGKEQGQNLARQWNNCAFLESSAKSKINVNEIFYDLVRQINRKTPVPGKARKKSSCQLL

Biological target: GST-RalGDS Rap-binding domain (UniProt Q12967)
Assay: pull-down; GST-RBD held on GSH-Sepharose / glutathione-agarose resin; lysates of HA-Rap1 transfected NRK, HELA or HL-1 cells (pre-treated 2 h with DMSO, 8-Br-cAMP, ESI-09 or trypomastigotes of T. cruzi Y strain) incubated with the resin 1 h at 4°C; washed, eluted with cracking buffer, Western blot; only the target purified

**Q.** HA-Rap1b (from UniProt P61224 1-184) was tested. Which binding did it give?
**A.** The binding was “binds”.
